Assay results published in PMC11063404, “Classical and novel properties of Holliday junction resolvase SynRuvC from Synechocystis sp. PCC6803”.
For part of these data: The comparison behind a weaker result is the experiment's own reference, which may not be listed here. Protein sequences can lack the tags named with them. For part of these data: The exact form of at least one protein or probe is not confirmed. For part of these data: At least one verdict rests on a figure or table, not on a statement of the authors.

Key:
[1] = molecular target: T1, SynRuvC (FL, WT) (Synechocystis sp. PCC6803) (UniProt Q55506); experiment: EMSA; conditions: EMSA: 50 nM 5'-FAM DNA, 0-2000 nM protein, 20 mM HEPES pH 7.5, 50 mM NaCl, 1 mM DTT, 10% DMSO, 1% glycerol, no metal listed, 37 C 60 min, 5% native PAGE in 1x TAE, recombinant protein, residues 1-167, protein details: His-SUMO N-terminal, removed
T1 sequence (looked up): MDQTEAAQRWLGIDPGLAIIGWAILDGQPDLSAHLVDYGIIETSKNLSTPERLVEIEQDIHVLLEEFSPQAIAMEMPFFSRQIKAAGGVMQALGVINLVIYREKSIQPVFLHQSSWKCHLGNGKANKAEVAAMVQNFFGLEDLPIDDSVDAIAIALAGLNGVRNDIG

[2] = molecular target: T2, SynRuvC 1-144 (Synechocystis sp. PCC6803) (UniProt Q55506); experiment: EMSA; conditions: complex migration slightly altered, deletion said to hinder substrate binding; EMSA: 50 nM 5'-FAM DNA, 0-2000 nM protein, 20 mM HEPES pH 7.5, 50 mM NaCl, 1 mM DTT, 10% DMSO, 1% glycerol, no metal listed, 37 C 60 min; 5% native PAGE in 1x TAE; recombinant protein; residues 1-144; protein details: His-SUMO N-terminal, removed (purified as WT); label: 5'-FAM on one strand; folded or branched DNA
T2 sequence (looked up): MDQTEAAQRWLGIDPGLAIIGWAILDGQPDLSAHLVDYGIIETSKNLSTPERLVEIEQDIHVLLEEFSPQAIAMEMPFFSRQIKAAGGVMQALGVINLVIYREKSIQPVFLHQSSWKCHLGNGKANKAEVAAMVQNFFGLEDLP

[3] = label: 5'-FAM on one strand, folded or branched DNA

**Q.** Does “GCAATTCGATCGTTGACATCTCGCGTGCTCGGTCAATCGGCAGATGCGGAGTGAAGTTCCAACGTTCGGC / GCCGAACGTTGGAACTTCACTCCGCATCTGCCGAT [5'-overhang (35 nt)]” bind ([1]; substrates with 5'-single strands preferred over double strands, label: 5'-FAM on one strand)?
**A.** binds

**Q.** Does “GCAATTCGATCGTTGACATCTCGCGTGCTCGGTCAATCGGCAGATGCGGAGTGAAGTTCCAACGTTCGGC / CGGCTTGCAACCTTGAAGTGAGGCGTAGACGGCTATGACCGAGCACGCGAGATGTCAACGATCGAATTGC [splayed arms]” bind [1, 3]?
**A.** binds

**Q.** Does “GCAATTCGATCGTTGACATCTCGCGTGCTCGGTCAATCGGCAGATGCGGAGTGAAGTTCCAACGTTCGGC / CCTGCAGGATGGTAGGACGGCCTCGCAATCCCGATTGACCGAGCACGCGAGATGTCAACGATCGAATTGC / GCCGAACGTTGGAACTTCACTCCGCATCTGCCGATTGACCGAGTGGCGTGTTTCTGGTGGTTCCTAGGTC / GACCTAGGAACCACCAGAAACACGCCACTCGGTCAATCGGGATTGCGAGGCCGTCCTACCATCCTGCAGG [4Jh]” bind [1, 3]?
**A.** binds

**Q.** Does “GCAATTCGATCGTTGACATCTCGCGTGCTCGGTCAATCGGCAGATGCGGAGTGAAGTTCCAACGTTCGGC / CCTGCAGGATGGTAGGACGGCCTCGCAATCCCGATTGACCGAGCACGCGAGATGTCAACGATCGAATTGC / GCCGAACGTTGGAACTTCACTCCGCATCTGCCGATTGACCGAGTGGCGTGTTTCTGGTGGTTCCTAGGTC / GACCTAGGAACCACCAGAAACACGCCACTCGGTCAATCGGGATTGCGAGGCCGTCCTACCATCCTGCAGG [4Jh]” bind [2]?
**A.** binds more weakly

**Q.** Does “GCAATTCGATCGTTGACATCTCGCGTGCTCGGTCAATCGGCAGATGCGGAGTGAAGTTCCAACGTTCGGC / GCCGAACGTTGGAACTTCACTCCGCATCTCGGTTGAATGGCAGCACGCGAGATGTCAACGATCGAATTGC [bubble]” bind [1, 3]?
**A.** binds

**Q.** Does “GCAATTCGATCGTTGACATCTCGCGTGCTCGGTCAATCGGCAGATGCGGAGTGAAGTTCCAACGTTCGGC (double strand) [duplex]” bind ([1]; double strands less preferred than 5'-single strands, label: 5'-FAM on one strand)?
**A.** binds

**Q.** Does “GCAATTCGATCGTTGACATCTCGCGTGCTCGGTCAATCGGCAGATGCGGAGTGAAGTTCCAACGTTCGGC / GCCGAACGTTGGAACTTCACTCCGCATCTGCCGAT / CGGCTTGCAACCTTGAAGTGAGGCGTAGACGGCTATGACCGAGCACGCGAGATGTCAACGATCGAATTGC [5'-flap]” bind [1, 3]?
**A.** binds

**Q.** Does “GCAATTCGATCGTTGACATCTCGCGTGCTCGGTCAATCGGCAGATGCGGAGTGAAGTTCCAACGTTCGGC / TGACCGAGCACGCGAGATGTCAACGATCGAATTGC / GCCGAACGTTGGAACTTCACTCCGCATCTGCCGATACTGGCTCGTGCGCTCTACAGTTGCTAGCTTAACG [3'-flap]” bind [1, 3]?
**A.** binds

**Q.** Does “GCAATTCGATCGTTGACATCTCGCGTGCTCGGTCAATCGGCAGATGCGGAGTGAAGTTCCAACGTTCGGC / GCCGAACGTTGGAACTTCACTCCGCATCTGCCGAT / TGACCGAGCACGCGAGATGTCAACGATCGAATTGC [nicked duplex]” bind ([1]; label: 5'-FAM on one strand)?
**A.** binds

**Q.** Does “GCAATTCGATCGTTGACATCTCGCGTGCTCGGTCAATCGGCAGATGCGGAGTGAAGTTCCAACGTTCGGC [ssDNA J2]” bind ([1]; label: 5'-FAM, single-stranded DNA)?
**A.** binds

**Q.** Does “GCAATTCGATCGTTGACATCTCGCGTGCTCGGTCAATCGGCAGATGCGGAGTGAAGTTCCAACGTTCGGC / TGACCGAGCACGCGAGATGTCAACGATCGAATTGC [3'-overhang]” bind ([1]; label: 5'-FAM on one strand)?
**A.** binds

**Q.** Does “GCAATTCGATCGTTGACATCTCGCGTGCTCGGTCAATCGGCAGATGCGGAGTGAAGTTCCAACGTTCGGC / GCCGAACGTTGGAACTTCACTCCGCATCTGCCGAT / GACCGAGCACGCGAGATGTCAACGATCGAATTGC [gapped duplex]” bind ([1]; label: 5'-FAM on one strand)?
**A.** binds
